For 65 molecules, AC50 results are on record in PubChem BioAssay AID493014 (National Center for Advancing Translational Sciences (NCATS), 2011).

One may read the AC50 as the concentration giving half of the maximal activity seen.

Structures are written as SMILES. The list shows a part of the results. The main result of the screen is listed elsewhere. These columns were measured beside it and carry no call. Compounds called inactive in the main read-out are mostly missing here. Potencies come from curve fits of mixed quality, noted in brackets.

The assay is described as follows: qHTS Assay to Find Inhibitors of Chronic Active B-Cell Receptor Signaling. As to conditions: ABC-DLBCL IkBa-CBG/CBR reporter, luminescence ratio (green luciferase fused to IkBa over red control in TMD8 lymphoma cells), 4 h. The source says: NIH Molecular Libraries Probe Production Network [MLPCN] NIH Chemical Genomics Center [NCGC] MLPCN Grant: 1 R03 DA031086-01A1 PI Name: Dr. R. Eric Davis NCGC Assay Overview: Diffuse large B-cell lymphoma (DLBCL) is the most common category of non-Hodgkin lymphoma, with ~20,000 new cases per year in the United States. DLBCL should be regarded as a collection of different neoplasms. Microarray gene expression analysis has defined two principal types of DLBCL, named for their similarity to normal B cell stages or activation states: a germinal center B-cell (GCB) type, and an activated B-cell (ABC) type. In ABC-DLBCL, a constitutive high-level activity of the NF-kappaB family of transcription factors has been observed (1) and NF-kappaB target genes are more highly expressed in ABC primary tumors than in GCB tumors. Functional studies have shown a constitutive high-level activity of the IkappaB (inhibitor of kappa-B) kinase (IKK) complex. […] Further analysis of DLBCL primary tumors for NF-kappaB target gene expression imply that although CARD11 is required for constitutive IKK activity in all ABC-DLBCL lines, mutations in CARD11 may be the root cause of IKK activation only in lines or tumors with such mutations. In other words, CARD11 mutations may explain NF-kappaB activation in only 10% of ABC-DLBCL cases. […] This process has been termed 'chronic active BCR signaling' (CABS). The goal of this screen is to find small-molecule inhibitors of the CABS pathway found in ABC-DLBCL lines using a cell-based assay that measures IkappaBalpa stability, which has already been extensively validated in the OCI-Ly3 line (PubChem AID:445; REF: 4). […] The assay uses green (CBG68) and red (CBR) emitting beetle luciferases [Chroma-GloTM developed by Promega Corp.] where the green luciferase is fused to IkappaBalpha and the red luciferase is present in its native state. Both luciferase genes are stably present in the TMD8 human ABC DLBCL cell line, but their expression is under the control of tetracycline-inducible promoters. Following the addition of doxycycline to induce expression of the luciferases, the green luminescence in control cultures rises only slowly because the CBG fusion partner IkappaBalpha is targeted by IKK activity for rapid degradation. In contrast, green luminescence rises rapidly in the presence of proteasome inhibitors or IKK inhibitors. The rise in red luminescence of CBR is not affected by proteasome or IKK inhibitors, and serves as normalization for cell number and nonspecific effects. Compounds were screened as a concentration-titration series that ranged from 46 uM to 3 nM.
NCGC Assay Protocol Summary: Cells were seeded in 1536-well plates at 5000 cells/4uL in IMDM medium containing 0.5% FBS, w/o phenol red, 1% penicillin/streptomycin. Then, 23 nL of compounds or DMSO were delivered to each well using a pin tool. One uL 20ng/ml doxycycline was then dispensed into white solid 1536-well plates and the plates were incubated at 37C/5% C02 in a cell incubator for 4 hrs. Then 4 uL luminescent substrate mix (in-house prepared: 150 mM Tris-Cl, pH 7.6, 3 mM MgCl2, 1% Triton X-100, 5 mM DTT, 0.2 mM CoA, 0.15 mM ATP, 5 mM D-luciferin, final concentrations) was added to each well. The plate was incubated at r.t. for 10-15 min. The plates were measured on a ViewLux plate reader for green luminescence (540/20 nm filter) and red luminescence (618/8 nm filter). The green and red luminescent signals were corrected for red and green luminescence filter overlap using previously determined filter calibration constants (determined using the procedure outlined in the Promega Technical Manual; REF 4). The %Activity was determined from the ratio of corrected green/red luminescent values. MG132 were used as control. […] Red luminescent %Activity was normalized to the difference between red luminesence in basal cells (0%Activity) and zero luminescence (-100% Activity). […]

[1] abbreviates: measured here: CBR red luminescence, cell number.

For the molecule `C#CCOc1cc(C2C3=C(COC3=O)Nc3cc4c(cc32)OCO4)ccc1OC` (stereo unspecified), the AC50 is 3.16 µM [rising, partial curve, poor fit] under setting [1] and 3.98 µM [falling, full curve] (measured here: IkBa-CBG green luminescence).
For the molecule `Fc1cccc(F)c1CN1CCN(c2ccc(Cl)cc2)CC1`, the AC50 under setting [1] was 14.1 µM [rising, partial curve, poor fit].
With `CCCCCc1cc(=O)oc2c(C(CCN(CC)CC)c3cc(OC)c(OC)c(OC)c3)c(OC)cc(OC)c12` (stereo unspecified), the AC50 under setting [1] is 12.6 µM [falling, single point].
On to `COc1ccc(-c2nn(CCC#N)cc2C(=O)Nc2ccccc2Cl)cc1`, for which the AC50 under setting [1] was 0.398 µM [rising, full curve, poor fit].
For `CCCNC(=O)c1c(N)n(CC2CCCO2)c2nc3ccccc3nc12` (stereo unspecified), the AC50 under setting [1] was 3.16 µM [falling, partial curve].
For the molecule `COc1ccc(NC(=O)CN2C(=O)C(C)N=C(c3ccccc3F)c3cc(Cl)ccc32)c(OC)c1` (stereo unspecified), under setting [1], the AC50 was 35.5 µM [falling, single point].
`Cc1cc(C)c(NC(=O)CCCn2c(=O)oc3ccccc32)c(C)c1`: the AC50 under setting [1] was 4.61 µM [rising, partial curve, poor fit].
For the molecule `c1ccc(CNc2ncnc3nc[nH]c23)cc1`, under setting [1], the AC50 was 0.92 µM [falling, full curve, poor fit].
As for `CNC(=O)OCCc1nccn1C`, under setting [1], the AC50 is 1.3 µM [rising, full curve].
Still for that read-out and setting: as for `O=C(O)[C@@H]1C[C@H]1[C@@H](NP(=O)(c1ccccc1)c1ccccc1)c1ccccc1`, the figure is 0.103 µM [rising, full curve, poor fit]; as for `Cc1ccc(O)c(CN2CCN(c3ccccc3)CC2)c1`, 35.5 µM [rising, single point].
As for `COC(=O)c1cnn(-c2cc(Oc3ccccc3)ncn2)c1N`, the AC50 under setting [1] was 6.31 µM [rising, full curve, poor fit].
As to `FC(F)(F)c1ccc2c(c1)N(CCCN1CCN(CCCl)CC1)c1ccccc1S2`, under setting [1], the concentration at half-maximal activity (AC50) is 0.731 µM [rising, partial curve, poor fit].
As to `COC(=O)C1=C(c2ccc(-c3ccccc3)c(F)c2)C[C@@H]2CC[C@H]1N2C(=O)NC1Cc2ccccc2C1`, the AC50 under setting [1] was 2.91 µM [falling, partial curve].
On to `O=C(Nc1ccc(Cl)cc1)O/N=C(\c1ccccc1)c1ccccn1`, for which the AC50 under setting [1] was 1.26 µM [rising, full curve, poor fit].
Same read-out and setting: the value for `CCCNC(=O)N1C2CCC1CC(O)(c1cccnc1)C2` (stereo unspecified) was 0.0058 µM [falling, full curve, poor fit].
The same measure, in the same setting: the value for `Cc1cc(C)cc(-n2c(/C=C/c3cccc(F)c3)nc3ccccc3c2=O)c1` was 3.55 µM [rising, partial curve, poor fit]; that for `COc1cc(/C=N/NC(=O)Cn2c([N+](=O)[O-])cnc2C)ccc1OC(=O)N(C)C` was 6.51 µM [rising, single point]; that for `CCCCNS(=O)(=O)c1ccc(OCC(=O)N2CCN(Cc3ccc4c(c3)OCO4)CC2)cc1` was 28.2 µM [falling, single point].
Regarding `O=[N+]([O-])c1cccc(NP(=O)(Oc2ccccc2)Oc2ccccc2)c1`, under setting [1], the AC50 is 31.6 µM [falling, single point].
On the same count and under the same terms, as for `CC1(C)CC(=O)C(C=NCCN2CCN(C(=O)Cc3ccccc3)CC2)=C(O)C1`, the figure is 10 µM [rising, partial curve, poor fit]; as for `COc1cccc(CC(=O)N2CCN(Cc3cccc(Cl)c3)CC2)c1`, 17.8 µM [falling, partial curve, poor fit]; as for `CC(CO)(CO)N=Cc1c(O)n(-c2cccc3ccccc23)c(=O)[nH]c1=O`, 6.51 µM [falling, partial curve, poor fit].
Still for that read-out and setting: the value for `COc1ccc2ccc(O)c(CN3CC=C(c4ccccc4)CC3)c2c1` was 35.5 µM [falling, single point]; that for `C=CCn1c(O)c(C(C)=NCc2cccnc2)c(=O)[nH]c1=O` was 2.59 µM [falling, partial curve]; that for `CNC(=O)Oc1ccc2c(c1)C(=O)c1ccccc1CO2` was 2.91 µM [falling, single point].
`c1ccc2c(CN3CCCCCC3)c[nH]c2c1`: the AC50 under setting [1] was 2 µM [falling, full curve, poor fit].
For the molecule `Cc1cccc(OP(=O)(Nc2ccc(F)cc2)Oc2cccc(C)c2)c1`, the AC50 under setting [1] was 14.1 µM [falling, single point].
Consider `CC1=CC(C)C(COC(N)=O)(COC(N)=O)C(C)C1` (stereo unspecified), for which, under setting [1], the AC50 is 0.00411 µM [falling, full curve, poor fit].
On the same count and under the same terms, the value for `NC(N)=N/N=C/c1ccc(N2CCOCC2)cc1` was 35.5 µM [falling, single point]; that for `CNC(=O)N(C)c1ccc(C(O)(C(=O)OC)C(F)(F)F)cc1` (stereo unspecified) was 35.5 µM [rising, single point]; that for `Cn1c(=O)oc2cc(S(=O)(=O)NC3CCCc4ccccc43)ccc21` (stereo unspecified) was 0.184 µM [falling, single point].
Still for that read-out and setting: as for `O=C(O)c1ccccc1SCC(=O)N1CCc2ccccc21`, the figure is 14.1 µM [falling, partial curve, poor fit]; as for `O=C(Cn1nc(Cc2cccnc2)c2ccccc2c1=O)N1CCC2(CC1)OCCO2`, 29.1 µM [rising, single point]; as for `Cc1cccc(-n2c(O)c(C=NCCN3CCCCC3)c(=O)[nH]c2=O)c1`, 3.98 µM [rising, full curve, poor fit].
On the same count and under the same terms, the value for `Cc1nc2ccccc2c(=O)n1-c1ccc(F)cc1F` was 28.2 µM [rising, single point]; that for `Cc1ccc2c(c1)C1CN(C)CCC1N2S(=O)(=O)c1ccccc1` (stereo unspecified) was 31.6 µM [falling, partial curve, poor fit]; that for `Nc1c(C(=O)NCc2ccco2)c2nc3ccccc3nc2n1Cc1ccccc1` was 18.4 µM [falling, partial curve].
`Cc1cccc(-n2c(C)nc3cc(C(=O)N4CCC5(CC4)OCCO5)ccc32)c1`: the concentration at half-maximal activity (AC50) under setting [1] was 3.98 µM [rising, partial curve, poor fit].
As for `Oc1ccc(C2NCc3ccccc3-n3cccc32)cc1Cl` (stereo unspecified), the AC50 under setting [1] was 29.1 µM [falling, single point].
Turning to `CCOc1cccc(CNCCc2c(C)[nH]c3ccc(OC(F)(F)F)cc23)c1O`, under setting [1], the AC50 was 35.5 µM [falling, single point].
For the molecule `O=C(CN1CC=C(c2ccccc2)CC1)NC(=O)NCc1ccco1`, under setting [1], the concentration at half-maximal activity (AC50) is 11.2 µM [rising, partial curve, poor fit].
`COC(=O)c1cccc(COC(=O)c2cc3ccccc3oc2=O)c1`: the AC50 under setting [1] was 11.2 µM [rising, partial curve, poor fit].
With `Cc1ccccc1N1CCN(C2CCCN(C(=O)Cc3c(C)noc3C)C2)CC1` (stereo unspecified), under setting [1], the AC50 is 35.5 µM [falling, single point].
Turning to `O=C(N/N=C1/CN2CCC1CC2)c1cccc(O)c1`, the AC50 under setting [1] was 1.46 µM [falling, partial curve].
The same measure, in the same setting: the value for `Cc1cc(C)c(-n2c(O)c(/C=N/NC(=O)c3ccncc3)c(=O)[nH]c2=O)c(C)c1` was 0.891 µM [rising, full curve, poor fit].
Same read-out and setting: the value for `COCCOC(=O)c1c(C)n(C)c2ccc(OC(=O)N3CCOCC3)cc12` was 35.5 µM [falling, single point]; that for `CCCCCn1c(=O)c(C(=O)Nc2ccccc2N)c(O)c2ccccc21` was 20 µM [rising, single point].
As to `CCOC(=O)C(O)(c1ccc(NC(=S)NC(=O)c2ccc(Cl)cc2Cl)c(C)c1)C(F)(F)F` (stereo unspecified), the AC50 under setting [1] is 16.4 µM [falling, single point].
Regarding `COc1ccc(CCn2c(O)c(C=Nc3ccc(F)cc3)c(=O)[nH]c2=O)cc1OC`, the AC50 under setting [1] is 3.98 µM [rising, single point].
Turning to `CN(C)C(=O)Oc1ccc2ccccc2c1Cl`, the AC50 under setting [1] is 0.58 µM [falling, full curve].
`CN1CCN(c2ccc3nccnc3c2)CC1`: the AC50 under setting [1] was 31.6 µM [falling, single point].
Take `CCC(C)N=Cc1c(O)n(-c2ccccc2)c(=O)[nH]c1=O` (stereo unspecified): the AC50 under setting [1] is 29.1 µM [falling, single point].
With `O=S1(=O)N(CCN2CC=C(c3c[nH]c4cc(F)ccc34)CC2)c2cccc3c2N1CCC3`, under setting [1], the AC50 is 2.91 µM [rising, full curve].
With `CNC(=S)NC1CC2CCCC(C1)N2CC(C)C` (stereo unspecified), the concentration at half-maximal activity (AC50) under setting [1] is 3.55 µM [rising, single point].
For the molecule `CN(C)CCCN1c2ccccc2Sc2ccc(Cl)cc21`, the AC50 under setting [1] is 31.6 µM [falling, partial curve, poor fit].
Same read-out and setting: as for `c1ccc2c(c1)[nH]c1cnccc12`, the figure is 12.6 µM [falling, partial curve, poor fit]; as for `Cc1cc(-c2ccccc2)cc(-c2ccccc2)[n+]1CCc1ccccc1`, 20.6 µM [falling, single point]; as for `Clc1ccc(-c2cc3ccccc3nc2N2CCOCC2)cc1`, 35.5 µM [rising, single point].
As to `O=C(C(=O)N1CCOCC1)c1cn(Cc2c(F)cccc2Cl)c2ccccc12`, under setting [1], the AC50 is 3.98 µM [rising, single point].
Same read-out and setting: as for `COc1ccc(Br)cc1CNCCc1cccc(Cl)c1`, the figure is 14.1 µM [falling, single point]; as for `Cc1c(/C=N/NC(=O)c2ccc(Br)o2)cnn1C`, 35.5 µM [falling, single point]; as for `O=c1cccc2n1CC1CC2CN(Cc2cccc(Cl)c2Cl)C1` (stereo unspecified), 5.01 µM [falling, partial curve].
On to `Nc1ccc2c3c(cccc13)CC2`, for which the AC50 under setting [1] was 31.6 µM [rising, single point].
In the case of `Cc1cccc(N2C(=O)NC(=O)/C(=C\c3cc(C)n(-c4sc5c(c4C#N)CCCC5)c3C)C2=O)c1C`, the AC50 under setting [1] was 16.4 µM [rising, partial curve, poor fit].
